Results from publication PMC11092326.
Results are given in words; binding and its absence hold for the method and conditions named. In cells and extracts the contact can be indirect. Here binding means that the protein was enriched with, or labelled near, the bait; the list need not be complete.

By UniProt entry, the sequences of proteins in these tests, tags left out.
UniProt P35579: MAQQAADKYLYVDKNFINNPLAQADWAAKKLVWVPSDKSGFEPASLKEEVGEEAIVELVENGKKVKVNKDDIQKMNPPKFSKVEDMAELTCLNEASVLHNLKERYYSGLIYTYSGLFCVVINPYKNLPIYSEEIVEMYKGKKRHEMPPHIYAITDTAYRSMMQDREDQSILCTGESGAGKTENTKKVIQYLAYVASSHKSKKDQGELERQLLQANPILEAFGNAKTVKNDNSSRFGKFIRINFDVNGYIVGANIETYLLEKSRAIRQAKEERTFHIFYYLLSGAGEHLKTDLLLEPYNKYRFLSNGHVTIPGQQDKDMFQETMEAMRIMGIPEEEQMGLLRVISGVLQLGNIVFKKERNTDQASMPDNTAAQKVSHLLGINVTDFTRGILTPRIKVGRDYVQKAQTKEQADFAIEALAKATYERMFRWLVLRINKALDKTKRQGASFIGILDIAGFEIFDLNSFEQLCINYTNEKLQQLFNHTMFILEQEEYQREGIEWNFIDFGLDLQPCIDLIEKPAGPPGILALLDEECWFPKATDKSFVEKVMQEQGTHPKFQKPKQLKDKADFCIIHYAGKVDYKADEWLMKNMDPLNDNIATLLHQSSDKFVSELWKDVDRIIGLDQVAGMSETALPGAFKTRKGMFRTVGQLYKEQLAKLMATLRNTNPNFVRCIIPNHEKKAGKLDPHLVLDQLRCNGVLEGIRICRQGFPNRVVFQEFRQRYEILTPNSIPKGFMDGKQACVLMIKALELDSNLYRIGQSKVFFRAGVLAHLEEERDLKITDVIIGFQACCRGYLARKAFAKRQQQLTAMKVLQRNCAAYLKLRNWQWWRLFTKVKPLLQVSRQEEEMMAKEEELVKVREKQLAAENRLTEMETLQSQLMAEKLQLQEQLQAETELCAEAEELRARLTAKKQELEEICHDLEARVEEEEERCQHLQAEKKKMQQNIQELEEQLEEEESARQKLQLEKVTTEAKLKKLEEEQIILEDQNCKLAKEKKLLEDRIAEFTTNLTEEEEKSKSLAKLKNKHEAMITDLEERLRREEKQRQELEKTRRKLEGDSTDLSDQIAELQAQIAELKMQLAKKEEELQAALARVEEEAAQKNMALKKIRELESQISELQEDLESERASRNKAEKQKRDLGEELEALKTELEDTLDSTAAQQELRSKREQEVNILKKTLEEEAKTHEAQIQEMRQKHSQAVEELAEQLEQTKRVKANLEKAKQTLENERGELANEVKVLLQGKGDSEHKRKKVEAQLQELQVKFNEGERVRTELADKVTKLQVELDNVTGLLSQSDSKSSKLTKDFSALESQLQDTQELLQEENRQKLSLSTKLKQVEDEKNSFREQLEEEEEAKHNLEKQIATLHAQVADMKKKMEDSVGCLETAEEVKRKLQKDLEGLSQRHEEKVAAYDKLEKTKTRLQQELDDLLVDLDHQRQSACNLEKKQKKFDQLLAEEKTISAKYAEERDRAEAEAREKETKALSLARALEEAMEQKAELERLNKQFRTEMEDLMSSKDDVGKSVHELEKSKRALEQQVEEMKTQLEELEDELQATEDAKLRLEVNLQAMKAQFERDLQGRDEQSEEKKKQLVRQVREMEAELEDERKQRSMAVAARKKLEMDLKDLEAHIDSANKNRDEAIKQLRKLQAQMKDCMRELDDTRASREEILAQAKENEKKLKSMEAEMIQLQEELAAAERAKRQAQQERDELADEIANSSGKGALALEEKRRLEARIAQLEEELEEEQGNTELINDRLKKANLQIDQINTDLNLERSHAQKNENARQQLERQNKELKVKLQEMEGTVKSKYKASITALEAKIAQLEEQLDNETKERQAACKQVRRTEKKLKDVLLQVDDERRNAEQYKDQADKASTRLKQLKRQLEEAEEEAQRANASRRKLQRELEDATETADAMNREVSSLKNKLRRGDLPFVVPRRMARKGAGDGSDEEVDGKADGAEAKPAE
UniProt P09874: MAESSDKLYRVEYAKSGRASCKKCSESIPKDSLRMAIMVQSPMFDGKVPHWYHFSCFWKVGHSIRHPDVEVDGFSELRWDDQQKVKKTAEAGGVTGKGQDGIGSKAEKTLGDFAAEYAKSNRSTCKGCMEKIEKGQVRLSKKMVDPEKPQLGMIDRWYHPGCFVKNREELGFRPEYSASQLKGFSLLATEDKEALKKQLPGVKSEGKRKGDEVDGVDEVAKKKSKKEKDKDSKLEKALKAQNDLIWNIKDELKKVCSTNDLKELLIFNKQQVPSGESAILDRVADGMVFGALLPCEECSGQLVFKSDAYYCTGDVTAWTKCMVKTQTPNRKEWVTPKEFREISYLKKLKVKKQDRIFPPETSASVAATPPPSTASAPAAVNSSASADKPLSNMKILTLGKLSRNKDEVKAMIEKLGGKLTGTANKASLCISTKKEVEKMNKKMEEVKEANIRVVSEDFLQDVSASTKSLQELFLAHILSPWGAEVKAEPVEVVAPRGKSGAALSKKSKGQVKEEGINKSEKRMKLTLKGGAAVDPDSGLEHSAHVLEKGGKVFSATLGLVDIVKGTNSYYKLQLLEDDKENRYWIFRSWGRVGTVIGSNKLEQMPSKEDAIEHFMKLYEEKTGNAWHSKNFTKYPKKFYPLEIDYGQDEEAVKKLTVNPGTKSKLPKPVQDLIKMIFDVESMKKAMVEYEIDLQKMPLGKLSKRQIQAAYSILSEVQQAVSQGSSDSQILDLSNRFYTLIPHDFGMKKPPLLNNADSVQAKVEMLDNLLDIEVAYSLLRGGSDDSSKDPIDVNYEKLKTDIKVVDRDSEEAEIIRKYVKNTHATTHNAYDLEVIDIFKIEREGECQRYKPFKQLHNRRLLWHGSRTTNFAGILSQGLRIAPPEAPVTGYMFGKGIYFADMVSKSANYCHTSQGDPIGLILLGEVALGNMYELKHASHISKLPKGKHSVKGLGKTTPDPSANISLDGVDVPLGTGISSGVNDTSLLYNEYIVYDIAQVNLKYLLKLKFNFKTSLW

Target: non-muscle myosin heavy chain IIA (endogenous, HeLa) (human (endogenous in HeLa)) (UniProt P35579)
Assay: affinity purification with mass spectrom

binding: binds
Substance: poly (ADP-ribose) polymerase 1 (endogenous, HeLa) (from UniProt P09874 1-1014)
